# Reference: PubChem BioAssay AID540276 (National Center for Advancing Translational Sciences (NCATS), 2011)
# Out of some 300,000 compounds screened, about 5,400 (1.8%) were called active. The inconclusive results got no clear call from the source; some entries with a clear call stand among them for comparison. The call rests on the fitted dose curve; tested in HEK293 cells. Potencies of inconclusive entries are doubtful fits and often do not repeat.
# Test: qHTS for inhibitors of binding or entry into cells for Marburg Virus
# Settings: Marburg virus pseudotyped entry inhibition, cell reporter; series mostly up to 37.8 µM
# Potency means the concentration at half of the fitted maximal effect.
row,Structure (SMILES),Potency
1,Cc1cc(C(=O)CSc2nc(N)cc(=O)[nH]2)c(C)n1CCc1ccc(F)cc1,"inconclusive: 11.2 µM [inhibitor, partial curve]"
2,COc1cc(NC(=O)c2ccccc2)c(OC)cc1NC(=O)CN1CCN(c2ccccn2)CC1,"inconclusive: 35.5 µM [inhibitor, single point]"
3,Cc1c(C(=O)N2CCCCC2)c(S(=O)(=O)Nc2ccc(F)cc2F)c(C)n1C,inactive
4,COC(=O)c1ccc(NC(=O)c2sc3nc(-c4ccccc4)cn3c2C)cc1,"inconclusive: 13 µM [inhibitor, single point]"
5,Cc1cc(OCC(=O)Nc2ccc(Br)cc2)cc2c1C(=O)CC(C)(C)O2,"inconclusive: 0.562 µM [inhibitor, full curve, poor fit]"
6,O=C(CN1CCN(S(=O)(=O)c2ccc(F)cc2)CC1)Nc1cc(C(F)(F)F)ccc1Cl,"inconclusive: 22.4 µM [inhibitor, partial curve, poor fit]"
7,CN(C)S(=O)(=O)c1cc(NC(=O)CN2CCNC(=O)C2)ccc1Cl,"inconclusive: 0.891 µM [inhibitor, full curve, poor fit]"
8,Cn1nnc(NCc2cc(Br)ccc2OCc2cccs2)n1,"inconclusive: 29.1 µM [inhibitor, single point]"
9,CC(=O)Nc1ccccc1NC(=O)C/C(C)=N/NC(=O)c1ccc([N+](=O)[O-])c(Cl)c1,"inconclusive: 35.5 µM [activator, partial curve, poor fit]"
10,CN1CCN(c2nc(-c3ccccc3)nc(-c3ccccc3)c2C#N)CC1,"inconclusive: 31.6 µM [inhibitor, single point]"
11,COc1ccc(CCNC(=O)c2ccc(CS(=O)(=O)Cc3cccc(C)c3)o2)cc1OC,"inconclusive: 6.31 µM [inhibitor, partial curve, poor fit]"
12,CCOC(=O)c1sc(N/N=C/c2ccccc2)nc1C,"inconclusive: 2.06 µM [activator, partial curve]"
13,Cc1ccc(N(C)S(=O)(=O)c2cccc(C(=O)Nc3ccc(C)cn3)c2)cc1,"inconclusive: 35.5 µM [inhibitor, single point]"
14,CC(C)(C)c1nc(SCC(=O)NNC(=O)c2ccccc2)c2ccccc2n1,"inconclusive: 5.01 µM [inhibitor, full curve, poor fit]"
15,Cc1ccc(CNCc2ccc3c(c2)OCO3)c(C)c1,"inconclusive: 35.5 µM [inhibitor, single point]"
16,CSc1nnc2c3ccccc3c3ccccc3c2n1,inactive
17,Cc1ccc(-c2cc(C(=O)N3CCC4(CC3)OCCO4)no2)cc1,"inconclusive: 0.398 µM [activator, full curve, poor fit]"
18,COc1ccc(NC(=O)c2c(C)oc3ccc(O)c(CN4CCC(C)CC4)c23)cc1,active: 11.2 µM
19,CCc1ccc(C(=O)Nc2ccc(S(=O)(=O)Nc3nc(C)cc(C)n3)cc2)o1,inactive
20,O=C(NN=Cc1cccc([N+](=O)[O-])c1)c1cccc2ccccc12,inactive
21,CCN1CCCC(C2NC3CCCCC3S2)C1 (stereo not given),inactive
22,CCn1c(COc2cc(C)cc(C)c2)nnc1SCC(=O)N1CCN(c2ccccc2)CC1,inactive
23,COc1cc(C=C(c2nc3ccccc3s2)c2nc3ccccc3s2)ccc1O,"inconclusive: 35.5 µM [inhibitor, partial curve, poor fit]"
24,COCc1[nH]nc2c1[C@@H](c1cccc(OC)c1)C(C#N)=C(N)O2,inactive
25,CCN(CC)S(=O)(=O)c1ccc(F)c(C(=O)OC2CC(C)OC2=O)c1 (stereo not given),inactive

row,Structure (SMILES),Potency
1,Cc1ccc(NC(=O)C2CCC(=O)N2)cc1C (stereo not given),inactive
2,CCc1cc(=O)[nH]c(SCCCF)n1,inactive
3,Cc1sc2nc(CSCC(=O)N(CCC#N)c3ccccc3F)[nH]c(=O)c2c1C,"inconclusive: 0.178 µM [inhibitor, full curve, poor fit]"
4,O=C(NCc1ccccn1)c1cc(-c2ccc(Cl)cc2)nc2ccccc12,"inconclusive: 2.82 µM [inhibitor, full curve, poor fit]"
5,O=C(NCCCN1CCCC1=O)c1ccc([N+](=O)[O-])s1,inactive
6,O=C(N/N=C/c1cc(Br)cs1)c1ccccc1[N+](=O)[O-],"inconclusive: 12.6 µM [inhibitor, single point]"
7,CC(Oc1ccc(Cl)cc1Cl)c1nc(-c2ccc(NC(=O)c3cccnc3)cc2)no1 (stereo not given),active: 11.2 µM
8,CN(Cc1ccccc1)C(=O)c1ccco1,inactive
9,CC(=O)[C@H]1CCC2C3CC[C@H]4C[C@H](O)CC[C@]4(C)C3CC[C@@]21C (stereo not given in full),"inconclusive: 17.8 µM [inhibitor, single point]"
10,COc1ccc(C(c2c(O)ccc3ccccc23)N2CCOCC2)c(OC)c1 (stereo not given),inactive
11,O=C(c1ccc(C(F)(F)F)cc1)C1CCCN(C(=O)CCc2ccncc2)C1 (stereo not given),"inconclusive: 14.1 µM [inhibitor, partial curve, poor fit]"
12,CCOc1ccc(CN2CCN(Cc3cccc4c3OCO4)CC2CCO)cc1 (stereo not given),"inconclusive: 11.2 µM [inhibitor, single point]"
13,O=C(Nc1ccc(N2CCCCC2)cc1)c1cncc(Br)c1,"inconclusive: 0.517 µM [activator, full curve, poor fit]"
14,O=C(NCc1cccnc1)C1CC(c2ccc(F)cc2)=NO1 (stereo not given),inactive
15,Cc1ccccc1OCCCCCNCCO,inactive
16,COc1ccc(-n2c(=S)[nH]c3cc(C(=O)NCCCN4CCCC4=O)ccc3c2=O)cc1OC,inactive
17,O=C1c2cnc3nc(SCc4ccccc4)nn3c2CC2c3ccccc3CCN12 (stereo not given),inactive
18,COc1cc(S(=O)(=O)Nc2cc(C)cc(C)c2)ccc1F,"inconclusive: 5.62 µM [activator, single point]"
19,Cc1cccc(NC(=O)c2cc3n(n2)C(C(F)(F)F)CC(C2CC2)N3)c1C (stereo not given),"inconclusive: 20 µM [activator, partial curve, poor fit]"
20,CN(C)CCNc1ncnc2c1sc1nc(N3CCOCC3)c3c(c12)CC(C)(C)SC3,active: 14.6 µM
21,CC(=O)c1ccc(N2CCN(CC(=O)N(C3CC3)C3CCS(=O)(=O)C3)CC2)c(F)c1 (stereo not given),inactive
22,Cc1ccc(C(=O)NNC(=O)Cn2ccc(C(F)(F)F)n2)o1,inactive
23,CCC1([N+](=O)[O-])COC(c2ccc(C)cc2)OC1 (stereo not given),"inconclusive: 6.31 µM [activator, single point]"
24,COc1ccccc1C(=O)NNC(=O)c1cccc([N+](=O)[O-])c1,inactive
25,Cc1cc(OCC(=O)Nc2ccncc2)ccc1Br,inactive

row,Structure (SMILES),Potency
1,CC(=O)c1ccc(OCC(O)CN2CCN(S(=O)(=O)c3c(C)cc(C)cc3C)CC2)cc1 (stereo not given),"inconclusive: 28.2 µM [inhibitor, single point]"
2,Cc1ccccc1OCC(O)CN(Cc1ccccc1O)C1CCCCC1 (stereo not given),active: 11.2 µM
3,O=C(CCCCCn1c(=S)[nH]c2ccccc2c1=O)NCc1ccc2c(c1)OCO2,"inconclusive: 29.1 µM [inhibitor, single point]"
4,Cc1noc(C)c1S(=O)(=O)N1CCC(C(=O)N2CCN(c3ccc(Cl)cc3)CC2)CC1,"inconclusive: 5.62 µM [inhibitor, single point]"
5,O=C(O)c1cccc(S(=O)(=O)N2CCc3ccccc3C2)c1,inactive
6,Cc1ccc(S(=O)(=O)N2CCN(c3ccc(C(F)(F)F)cc3[N+](=O)[O-])CC2)cc1,active: 8.91 µM
7,O=c1onc(-c2ccc(Cl)cc2)n1Cc1ccc(F)cc1,inactive
8,CCOC(=O)c1sc2ncn(CC(=O)Nc3ccc(C)cc3Br)c(=O)c2c1C,"inconclusive: 6.31 µM [inhibitor, single point]"
9,O=C(CCCN1C(=O)c2ccccc2C1=O)N1CCCCC1,inactive
10,Cc1ccc(C(=O)OCC(=O)Nc2ccc3c(c2)OCO3)o1,"inconclusive: 23.1 µM [activator, single point]"
11,CCCCOc1ccc(CN2CCCCC2)cc1,"inconclusive: 4.61 µM [inhibitor, partial curve, poor fit]"
12,COC(=O)C1CC(C(=O)OC)C2C(C(=O)OC)CC(C(=O)OC)C12 (stereo not given),"inconclusive: 12.6 µM [activator, single point]"
13,COc1cccc(CC(NC(C)=O)C(=O)NC2CCN(C(=O)c3ccncc3)CC2)c1OC (stereo not given),inactive
14,CCNCCNc1ccc(Cl)cc1[N+](=O)[O-],"inconclusive: 18.3 µM [inhibitor, partial curve, poor fit]"
15,N#Cc1c[nH]n2c(NC3CCCC3)c(-c3cccc(Cl)c3)nc12,"inconclusive: 35.5 µM [inhibitor, single point]"
16,Cc1ccc(N(CC(=O)Nc2ccc(C)c(F)c2)S(=O)(=O)c2c(C)n[nH]c2C)cc1,inactive
17,CCCSC1=N/C(=C\c2ccsc2)C(=O)S1,inactive
18,COc1ccccc1OCC(=O)NC1CC(C)(C)NC(C)(C)C1,inactive
19,Cc1ccc(NC(=S)N2CCN(S(C)(=O)=O)CC2)cc1Cl,"inconclusive: 2 µM [inhibitor, partial curve, poor fit]"
20,Cn1c(CNc2cccc(Cl)c2)nnc1SCC(=O)OC1CCCCC1,inactive
21,CCC1CCC(NC(=O)Nc2cccc(OC)c2)CC1 (stereo not given),"inconclusive: 1 µM [activator, full curve, poor fit]"
22,CCN(CC)c1ccc(/C=C2\NC(=O)NC2=O)cc1,inactive
23,NC(=O)c1ccsc1NC(=O)C1CCCN1S(=O)(=O)c1ccc(Cl)cc1 (stereo not given),inactive
24,O=C(NNC(=O)c1ccccc1[N+](=O)[O-])c1cnccn1,inactive
25,CCC1CC(C(=O)Nc2ccccc2)C(=O)O1 (stereo not given),"inconclusive: 6.31 µM [activator, single point]"

# Rewritten tab-delimited: entries from further up
row	Structure (SMILES)	Potency
19	Cc1ccc(NC(=S)N2CCN(S(C)(=O)=O)CC2)cc1Cl	inconclusive: 2 µM [inhibitor, partial curve, poor fit]
20	Cn1c(CNc2cccc(Cl)c2)nnc1SCC(=O)OC1CCCCC1	inactive
21	CCC1CCC(NC(=O)Nc2cccc(OC)c2)CC1 (stereo not given)	inconclusive: 1 µM [activator, full curve, poor fit]
22	CCN(CC)c1ccc(/C=C2\NC(=O)NC2=O)cc1	inactive
23	NC(=O)c1ccsc1NC(=O)C1CCCN1S(=O)(=O)c1ccc(Cl)cc1 (stereo not given)	inactive
